Results: the supplement of paper PMC12282887
Values are raw readings; no control value is given beside them.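 For antimicrobials the highest concentration approximated the MIC. Most other compounds topped out at 500 µM, and known inducer-like compounds reached up to 1 mM. Inocula for deletion strains were tenfold smaller, and any well growing below 10% of the overall median was considered non-growing.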

Tested on: Escherichia coli BW25113
Test: growth (OD600 area under curve, 8 h) (OD600 x h); higher = more growth
Procedure: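 E. coli BW25113 reporter strains (wild type, ΔmarA, ΔsoxS, Δrob, each carrying one of 8 lux reporter plasmids) were grown in 40 µl LB in 384-well plates at 37°C, 800 rpm, with each compound at 4 two-fold concentrations, in biological duplicates. Growth is the baseline-corrected OD600 area under the curve over 8 h (0-8 h WT, 1-9 h deletion strains).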

CN[C@@H]1[C@H](O)[C@H](NC)[C@H]2O[C@@]3(O)C(=O)C[C@@H](C)O[C@H]3O[C@@H]2[C@H]1O [Spectinomycin]
growth
Settings	reporter plasmid: EVC	reporter plasmid: acrABp	reporter plasmid: marRABp	reporter plasmid: micFp	reporter plasmid: ompFp	reporter plasmid: robp	reporter plasmid: soxSp	reporter plasmid: tolCp
0.62 µg/ml, genetic background: wild type	2.89	3.089	3.01	3.14	2.89	3	3	2.98
0.62 µg/ml, genetic background: ΔmarA	3.44	3.64	3.46	3.24	3.38	3.39	3	3.16
0.62 µg/ml, genetic background: Δrob	2.965	3.18	2.84	3.16	2.35	2.67	3.07	3.07
0.62 µg/ml, genetic background: ΔsoxS	3.36	3.32	3.16	2.9	2.8	2.92	3.19	3.09
1.2 µg/ml, genetic background: wild type	2.94	3.142	2.883	3.141	2.99	3	3.051	3.08
1.2 µg/ml, genetic background: ΔmarA	3.63	2.8	3.21	3.27	2.97	2.7	3.41	3.2971
1.2 µg/ml, genetic background: Δrob	3.1	3.17	2.74	3.35	2.1	2.56	3.08	3.29
1.2 µg/ml, genetic background: ΔsoxS	3.47	3.01	2.94	2.959	2.8	2.87	2.85	3.19
2.5 µg/ml, genetic background: wild type	2.88	3.17	3.26	3.08	3.18	3.08	3.08	3.122
2.5 µg/ml, genetic background: ΔmarA	3.66	3.97	4.04	3.42	3.79	4.12	3.25	3.21
2.5 µg/ml, genetic background: Δrob	3.09	3.32	3.36	3.38	2.72	2.91	2.96	3.23
2.5 µg/ml, genetic background: ΔsoxS	3.29	3.21	3.29	2.8	3.08	3.24	3	3.16
5 µg/ml, genetic background: wild type	2.76	3.02	3.09	3	2.7	2.92	2.61	2.85
5 µg/ml, genetic background: ΔmarA	3.35	3.67	3.31	3.2	2.67	3.08	3.22	3.08
5 µg/ml, genetic background: Δrob	3.13	3.19	3.03	3.16	2.22	2.61	2.99	3.17
5 µg/ml, genetic background: ΔsoxS	3.26	3.02	3.06	2.57	2.76	3.12	2.76	2.97

Cc1cc(NS(=O)(=O)c2ccc(N)cc2)no1 [Sulfamethoxazole]
growth
Settings	reporter plasmid: EVC	reporter plasmid: acrABp	reporter plasmid: marRABp	reporter plasmid: micFp	reporter plasmid: ompFp	reporter plasmid: robp	reporter plasmid: soxSp	reporter plasmid: tolCp
3.2 µg/ml, genetic background: wild type	2.9	3.21	2.96	3.13	2.64	2.66	2.82	2.76
3.2 µg/ml, genetic background: ΔmarA	3.13	3.773	3.5	3.3	3.18	3.45	3.07	2.98
3.2 µg/ml, genetic background: Δrob	3.19	3.41	3.3	3.063	2.41	2.83	2.89	3.15
3.2 µg/ml, genetic background: ΔsoxS	3.19	3.56	3.25	2.83	2.84	3.1	3.22	3.18
6.3 µg/ml, genetic background: wild type	2.91	3.33	3.09	2.98	2.77	2.82	2.79	2.785
6.3 µg/ml, genetic background: ΔmarA	3.38	4.17	3.66	3.31	3.27	3.76	2.87	3.13
6.3 µg/ml, genetic background: Δrob	3.03	3.449	3.31	3.04	2.67	2.86	2.75	3.002
6.3 µg/ml, genetic background: ΔsoxS	3.1	3.35	3.36	2.79	2.83	3.33	3.09	3.1
12.7 µg/ml, genetic background: wild type	2.91	3.15	3.15	2.95	2.64	2.87	3.02	2.99
12.7 µg/ml, genetic background: ΔmarA	3.29	4.27	3.52	3.31	3.07	3.58	3.09	2.99
12.7 µg/ml, genetic background: Δrob	3.01	3.07	3.26	3.01	2.26	2.56	2.86	3.208
12.7 µg/ml, genetic background: ΔsoxS	3.2	3.26	3.07	2.77	2.69	3.03	2.88	3.29
25.3 µg/ml, genetic background: wild type	2.75	2.95	2.81	2.6	2.26	2.529	2.63	2.8
25.3 µg/ml, genetic background: ΔmarA	2.8	3.3	2.72	2.72	2.15	3.27	2.33	2.54
25.3 µg/ml, genetic background: Δrob	2.81	1.92	2.55	2.56	1.54	1.94	2.29	2.902
25.3 µg/ml, genetic background: ΔsoxS	3.011	2.31	2.32	2.14	1.77	2.1	2.36	3.01

CN(C)[C@@H]1C(O)=C(C(N)=O)C(=O)[C@@]2(O)C(O)=C3C(=O)c4c(O)cccc4[C@@](C)(O)[C@H]3C[C@@H]12 [Tetracycline]
growth
Settings	reporter plasmid: EVC	reporter plasmid: acrABp	reporter plasmid: marRABp	reporter plasmid: micFp	reporter plasmid: ompFp	reporter plasmid: robp	reporter plasmid: soxSp	reporter plasmid: tolCp
0.056 µg/ml, genetic background: wild type	2.91	3.35	3.13	2.91	2.92	2.94	2.72	2.69
0.056 µg/ml, genetic background: ΔmarA	2.99	3.81	3.289	3.24	3.1	3.29	2.91	2.91
0.056 µg/ml, genetic background: Δrob	2.93	3.68	3.26	2.88	2.47	2.99	2.789	2.81
0.056 µg/ml, genetic background: ΔsoxS	3.15	3.66	3.44	2.86	3.02	3.443	3.27	3.16
0.11 µg/ml, genetic background: wild type	2.73	3.16	2.96	2.81	2.65	2.72	2.66	2.622
0.11 µg/ml, genetic background: ΔmarA	2.92	3.92	3.42	3.08	2.97	3.39	2.78	2.82
0.11 µg/ml, genetic background: Δrob	2.83	2.957	3.13	2.78	2.47	2.76	2.51	2.72
0.11 µg/ml, genetic background: ΔsoxS	3.115	3.28	2.85	2.76	2.89	3.27	2.95	3
0.22 µg/ml, genetic background: wild type	2.89	3.15	3.095	2.755	2.75	2.96	2.78	2.81
0.22 µg/ml, genetic background: ΔmarA	2.97	4.19	3.28	2.97	3.32	3.67	2.98	2.66
0.22 µg/ml, genetic background: Δrob	2.85	3.02	2.83	2.6	2.16	2.61	2.75	2.62
0.22 µg/ml, genetic background: ΔsoxS	3.23	3.35	3.21	2.79	2.98	3.25	2.954	3.13
0.44 µg/ml, genetic background: wild type	2.01	1.28	1.79	1.66	1.06	1.63	2.1	2.04
0.44 µg/ml, genetic background: ΔmarA	1.63	0.93	1.14	1.77	0.662	1.84	1.84	1.45
0.44 µg/ml, genetic background: Δrob	1.81	0.221	0.971	0.995	0.125	0.215	1.79	1.71
0.44 µg/ml, genetic background: ΔsoxS	2.14	0.477	0.446	1.43	0.247	0.428	1.11	2.28

NC(N)=S [Thiourea]
growth
Settings	reporter plasmid: EVC	reporter plasmid: acrABp	reporter plasmid: marRABp	reporter plasmid: micFp	reporter plasmid: ompFp	reporter plasmid: robp	reporter plasmid: soxSp	reporter plasmid: tolCp
4.8 µg/ml, genetic background: wild type	2.79	3.175	3	2.95	3.03	2.96	2.86	2.81
4.8 µg/ml, genetic background: ΔmarA	2.97	4.23	3.59	3.53	3.36	3.567	3.12	2.95
4.8 µg/ml, genetic background: Δrob	2.97	3.63	3.33	2.87	2.52	2.96	2.7	2.87
4.8 µg/ml, genetic background: ΔsoxS	3.23	3.58	3.25	2.9	2.8	3.337	3.13	3.13
9.5 µg/ml, genetic background: wild type	2.76	3.0213	3.08	2.94	3.01	2.91	2.835	2.9
9.5 µg/ml, genetic background: ΔmarA	2.88	4.17	3.39	3.36	3.53	3.38	3.07	2.85
9.5 µg/ml, genetic background: Δrob	2.91	3.047	3.17	2.92	2.53	2.84	2.56	2.85
9.5 µg/ml, genetic background: ΔsoxS	3.21	3.28	3.19	2.7	2.805	3.12	2.85	3.03
19 µg/ml, genetic background: wild type	3.09	3.19	3.34	3.15	3.13	3.45	3	3.15
19 µg/ml, genetic background: ΔmarA	2.97	4.39	3.8	3.32	3.67	3.93	3.08	2.97
19 µg/ml, genetic background: Δrob	3.06	3.17	3.51	3.15	2.81	3.085	2.92	3.15
19 µg/ml, genetic background: ΔsoxS	3.34	3.62	3.48	3.11	3.06	3.56	3.34	3.36
38.1 µg/ml, genetic background: wild type	2.93	3.07	3.35	3.0195	3.1	3.392	2.98	3.01
38.1 µg/ml, genetic background: ΔmarA	3.05	3.97	3.38	3.3	3.52	3.85	2.95	2.9
38.1 µg/ml, genetic background: Δrob	3.18	2.78	3.37	3.02	2.58	2.72	2.86	3.06
38.1 µg/ml, genetic background: ΔsoxS	3.35	3.148	3.11	2.94	2.77	3.14	3.11	3.31
